{"source": "PubChem BioAssay AID504764 (Drosophila RNAi Screening Center, 2011)", "aim": "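Genome-wide screen for regulators of Notch-driven gene expression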 (primary screen)", "system": "Drosophila Kc167 cells", "reagents": "long dsRNA against Drosophila genes", "time to read-out": "about 5 days (4 days dsRNA, then 24 h after transfection)", "conditions": "transfection of constitutively active membrane-tethered Notch lacking the extracellular domain, read 24 h later", "detection": "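Firefly luciferase from an E(spl)m3 reporter with active Notch, plus control-promoter and uninduced reporter wells for normalisation; unnormalised counts, duplicate wells a and b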", "reading the numbers": "induced reporter light, run 1, well a and induced reporter light, run 1, well b: higher = more light from the Notch target reporter with active Notch; control promoter light, run 1, well a and control promoter light, run 1, well b: higher = more light from the viral control promoter (cell number, transfection, viability); uninduced reporter light, run 1, well a: higher = more light from the Notch target reporter without active Notch", "rule for the call": "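Wells with low control signal or poorly matching duplicates excluded; duplicates averaged; per source plate, z beyond ±2 for induced/control log2 ratio or beyond ±1.8 for induced/uninduced marks a hit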", "meaning of the calls": "active = modifier hit (raised or lowered Notch signal); inactive = not a hit", "note": "The deposit covers about 22,000 reagents; shown is a random part of those that have a named target and a result. Of all reagents, 403 (1.9%) are marked active. 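Unnormalised raw counts per well; ratio z-scores behind the hit calls and whether each hit raises or lowers signal are not deposited.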 A plus sign joins genes that one reagent is predicted to hit. No sequences are given here. Not given: the amount of reagent."}
{"Gene": "l(2)27Cb (retired record)", "DRSC id": "DRSC02758", "induced reporter light, run 1, well a": 74710, "induced reporter light, run 1, well b": 57410, "control promoter light, run 1, well a": 72960, "control promoter light, run 1, well b": 61390, "uninduced reporter light, run 1, well a": 3990, "Call": "inactive"}
{"Gene": "CG32428", "DRSC id": "DRSC11697", "induced reporter light, run 1, well a": 19315, "induced reporter light, run 1, well b": 20755, "control promoter light, run 1, well a": 9785, "control promoter light, run 1, well b": 11770, "uninduced reporter light, run 1, well a": 4920, "Call": "inactive"}
{"Gene": "CG32428", "DRSC id": "DRSC11768", "induced reporter light, run 1, well a": 1.29e5, "induced reporter light, run 1, well b": 90070, "control promoter light, run 1, well a": 1.14e5, "control promoter light, run 1, well b": 1.04e5, "uninduced reporter light, run 1, well a": 8470, "Call": "inactive"}
{"Gene": "Fer3", "DRSC id": "DRSC16133", "induced reporter light, run 1, well a": 1.25e5, "induced reporter light, run 1, well b": 1.10e5, "control promoter light, run 1, well a": 71600, "control promoter light, run 1, well b": 74825, "uninduced reporter light, run 1, well a": 9000, "Call": "inactive"}
{"Gene": "ric8b + ric8a", "DRSC id": "DRSC18104", "induced reporter light, run 1, well a": 1.73e5, "induced reporter light, run 1, well b": 1.22e5, "control promoter light, run 1, well a": 1.71e5, "control promoter light, run 1, well b": 1.96e5, "uninduced reporter light, run 1, well a": 8278, "Call": "inactive"}
{"Gene": "mRpL24", "DRSC id": "DRSC03113", "induced reporter light, run 1, well a": 1.99e5, "induced reporter light, run 1, well b": 1.90e5, "control promoter light, run 1, well a": 2.44e5, "control promoter light, run 1, well b": 2.78e5, "uninduced reporter light, run 1, well a": 14760, "Call": "active"}
{"Gene": "CG30195", "DRSC id": "DRSC04155", "induced reporter light, run 1, well a": 1.55e5, "induced reporter light, run 1, well b": 1.57e5, "control promoter light, run 1, well a": 1.70e5, "control promoter light, run 1, well b": 1.55e5, "uninduced reporter light, run 1, well a": 11380, "Call": "inactive"}
{"Gene": "Cyp313a5", "DRSC id": "DRSC16628", "induced reporter light, run 1, well a": 79455, "induced reporter light, run 1, well b": 72730, "control promoter light, run 1, well a": 80935, "control promoter light, run 1, well b": 49530, "uninduced reporter light, run 1, well a": 4392, "Call": "inactive"}
{"Gene": "CG15153", "DRSC id": "DRSC02454", "induced reporter light, run 1, well a": 90845, "induced reporter light, run 1, well b": 1.09e5, "control promoter light, run 1, well a": 1.49e5, "control promoter light, run 1, well b": 1.59e5, "uninduced reporter light, run 1, well a": 8785, "Call": "active"}
{"Gene": "CG11417", "DRSC id": "DRSC18581", "induced reporter light, run 1, well a": 1.58e5, "induced reporter light, run 1, well b": 1.55e5, "control promoter light, run 1, well a": 2.02e5, "control promoter light, run 1, well b": 2.25e5, "uninduced reporter light, run 1, well a": 7910, "Call": "inactive"}
{"Gene": "CG5346", "DRSC id": "DRSC15778", "induced reporter light, run 1, well a": 2.17e5, "induced reporter light, run 1, well b": 2.04e5, "control promoter light, run 1, well a": 2.24e5, "control promoter light, run 1, well b": 2.26e5, "uninduced reporter light, run 1, well a": 16425, "Call": "inactive"}
{"Gene": "Hecw", "DRSC id": "DRSC18261", "induced reporter light, run 1, well a": 1.18e5, "induced reporter light, run 1, well b": 1.04e5, "control promoter light, run 1, well a": 1.74e5, "control promoter light, run 1, well b": 1.63e5, "uninduced reporter light, run 1, well a": 7265, "Call": "inactive"}
{"Gene": "Hecw", "DRSC id": "DRSC18276", "induced reporter light, run 1, well a": 1.29e5, "induced reporter light, run 1, well b": 1.43e5, "control promoter light, run 1, well a": 2.33e5, "control promoter light, run 1, well b": 2.90e5, "uninduced reporter light, run 1, well a": 8500, "Call": "inactive"}
{"Gene": "CG33272", "DRSC id": "DRSC09116", "induced reporter light, run 1, well a": 1.95e5, "induced reporter light, run 1, well b": 1.71e5, "control promoter light, run 1, well a": 1.22e5, "control promoter light, run 1, well b": 1.04e5, "uninduced reporter light, run 1, well a": 16020, "Call": "inactive"}
{"Gene": "lft", "DRSC id": "DRSC02236", "induced reporter light, run 1, well a": 1.13e5, "induced reporter light, run 1, well b": 1.35e5, "control promoter light, run 1, well a": 58560, "control promoter light, run 1, well b": 84075, "uninduced reporter light, run 1, well a": 14038, "Call": "inactive"}
{"Gene": "rn", "DRSC id": "DRSC12500", "induced reporter light, run 1, well a": 6330, "induced reporter light, run 1, well b": 7825, "control promoter light, run 1, well a": 6520, "control promoter light, run 1, well b": 3940, "uninduced reporter light, run 1, well a": 1755, "Call": "inactive"}
{"Gene": "rn", "DRSC id": "DRSC12543", "induced reporter light, run 1, well a": 48795, "induced reporter light, run 1, well b": 73260, "control promoter light, run 1, well a": 59870, "control promoter light, run 1, well b": 53755, "uninduced reporter light, run 1, well a": 4055, "Call": "inactive"}
{"Gene": "rn", "DRSC id": "DRSC12544", "induced reporter light, run 1, well a": 84575, "induced reporter light, run 1, well b": 1.06e5, "control promoter light, run 1, well a": 79330, "control promoter light, run 1, well b": 97690, "uninduced reporter light, run 1, well a": 7328, "Call": "inactive"}
{"Gene": "rn", "DRSC id": "DRSC12546", "induced reporter light, run 1, well a": 1.57e5, "induced reporter light, run 1, well b": 1.11e5, "control promoter light, run 1, well a": 1.41e5, "control promoter light, run 1, well b": 1.22e5, "uninduced reporter light, run 1, well a": 9655, "Call": "inactive"}
{"Gene": "rn", "DRSC id": "DRSC22291", "Call": "active"}

In a second layout: entries from further up
CG5346 [DRSC15778]
- induced reporter light, run 1, well a: 2.17e5
- induced reporter light, run 1, well b: 2.04e5
- control promoter light, run 1, well a: 2.24e5
- control promoter light, run 1, well b: 2.26e5
- uninduced reporter light, run 1, well a: 16425
- Call: inactive

Hecw [DRSC18261]
- induced reporter light, run 1, well a: 1.18e5
- induced reporter light, run 1, well b: 1.04e5
- control promoter light, run 1, well a: 1.74e5
- control promoter light, run 1, well b: 1.63e5
- uninduced reporter light, run 1, well a: 7265
- Call: inactive

Hecw [DRSC18276]
- induced reporter light, run 1, well a: 1.29e5
- induced reporter light, run 1, well b: 1.43e5
- control promoter light, run 1, well a: 2.33e5
- control promoter light, run 1, well b: 2.90e5
- uninduced reporter light, run 1, well a: 8500
- Call: inactive
